Data: publication PMC10798960
These are yes or no findings as the source states them, for the method shown. Binding seen in cells or lysates may run through a third protein. Some entries that bind do so weakly or less than the wild type.

By UniProt entry, the sequences of proteins in these tests, tags left out.
UniProt Q04207: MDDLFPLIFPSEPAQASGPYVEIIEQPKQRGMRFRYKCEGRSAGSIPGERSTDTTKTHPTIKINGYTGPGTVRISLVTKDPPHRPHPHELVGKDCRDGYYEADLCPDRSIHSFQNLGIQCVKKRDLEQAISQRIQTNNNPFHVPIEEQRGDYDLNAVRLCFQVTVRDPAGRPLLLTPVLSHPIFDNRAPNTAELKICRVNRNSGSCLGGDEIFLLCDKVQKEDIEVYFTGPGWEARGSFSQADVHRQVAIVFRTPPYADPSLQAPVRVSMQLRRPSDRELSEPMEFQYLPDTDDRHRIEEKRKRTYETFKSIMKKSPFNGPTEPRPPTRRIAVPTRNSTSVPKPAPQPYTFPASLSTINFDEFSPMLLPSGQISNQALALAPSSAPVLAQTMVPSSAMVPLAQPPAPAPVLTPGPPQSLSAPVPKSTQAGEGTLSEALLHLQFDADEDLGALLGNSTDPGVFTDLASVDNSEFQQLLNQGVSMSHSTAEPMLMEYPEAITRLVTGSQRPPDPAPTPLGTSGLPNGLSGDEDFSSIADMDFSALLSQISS

Experiments:
[1] = biological target: T1, integrin β3 (ITGB3) (mouse (endogenous in primary astrocytes and spinal cord)) (UniProt O54890); test: co-IP; total protein lysate of mouse spinal cord tissue (NMO model mice, in vivo treatment groups); IP with antibodies against ITGB3 or NF-κB-P65 or IgG negative control, 4 °C overnight, Protein A/G magnetic beads, PBST washes, Western blot
T1 sequence: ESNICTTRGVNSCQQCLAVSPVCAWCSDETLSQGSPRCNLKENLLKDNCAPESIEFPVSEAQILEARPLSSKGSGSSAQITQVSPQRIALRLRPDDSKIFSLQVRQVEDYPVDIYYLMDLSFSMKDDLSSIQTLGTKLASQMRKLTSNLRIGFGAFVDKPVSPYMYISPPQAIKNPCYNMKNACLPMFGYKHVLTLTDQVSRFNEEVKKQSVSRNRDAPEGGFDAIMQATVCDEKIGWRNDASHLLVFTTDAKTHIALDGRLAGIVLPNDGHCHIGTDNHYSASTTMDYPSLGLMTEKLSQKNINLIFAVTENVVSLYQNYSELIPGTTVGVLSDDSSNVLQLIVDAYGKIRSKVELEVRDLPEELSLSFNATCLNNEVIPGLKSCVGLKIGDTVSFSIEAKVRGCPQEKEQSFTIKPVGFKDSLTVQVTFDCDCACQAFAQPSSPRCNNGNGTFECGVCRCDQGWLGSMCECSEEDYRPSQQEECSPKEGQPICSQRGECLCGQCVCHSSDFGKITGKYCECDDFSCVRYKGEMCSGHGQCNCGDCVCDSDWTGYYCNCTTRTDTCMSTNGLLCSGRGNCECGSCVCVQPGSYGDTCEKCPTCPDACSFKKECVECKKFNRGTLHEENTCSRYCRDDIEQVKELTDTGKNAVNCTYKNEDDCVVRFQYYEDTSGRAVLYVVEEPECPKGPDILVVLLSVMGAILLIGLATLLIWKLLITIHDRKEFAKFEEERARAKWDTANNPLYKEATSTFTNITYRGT

[2] = biological target: T1, integrin β3 (ITGB3) (mouse (endogenous in primary astrocytes and spinal cord)); test: co-IP; total protein lysate of primary mouse astrocytes; IP with antibodies against ITGB3 or NF-κB-P65 or IgG negative control, 4 °C overnight, Protein A/G magnetic beads, PBST washes, Western blot; cells untreated or treated for 4 hours with hsCtrl-IgG, hsAQP4-IgG, MFGE8, or MFGE8 with Cilengitide

binding [1]: binds
binding [2]: binds
Substance: NF-κB-P65 (from UniProt Q04207 1-549)
